In this test the test system is P388 leukemia ip, CD2F1 mice, survival T/C. The experiment in a line: NCI In Vivo Anticancer Drug Screen. Data for tumor model P388 Leukemia (intraperitoneal) in CD2F1 (CDF1) mice. To be noted: T/C endpoint: median survival time, higher T/C = longer survival.
Where [1] appears, read: dose: 6.0 mg/kg/injection, schedule: Q01DX005 (ip), vehicle: saline with Tween-80.
[2] abbreviates: dose: 8.0 mg/kg/injection, schedule: Q04DX003 (ip), vehicle: other.
Setting [3] is: dose: 200.0 mg/kg/injection, schedule: Q01DX005 (ip), vehicle: Klucel (hydroxypropylcellulose) (HPC).
[4] abbreviates: dose: 200.0 mg/kg/injection, schedule: Q01DX009 (ip), vehicle: saline.

The list is a part of this screen's results and no random one: it is rich in T/C values a quarter to a half above the control, in often repeated tests (any T/C) and in doses without a T/C. Further doses and runs are listed elsewhere. T/C is the treated group as % of the vehicle group. Some entries give survivors of the animals treated and no T/C: the source files T/C as zero there, which appears to mark a toxic dose or a test without result, not a measured value. Some doses without a T/C left all or most animals alive at the check, yet need not have been tolerated: survival well below the control is almost never listed, so the zero probably covers shortened survival too. Counts of survivors are from the toxicity check (mostly the fifth day) where no day follows; animals may have died later. Schedules are NCI's codes, taken here to give the interval after Q, in days (D) or hours (H), and the number of doses after X. Some doses were run more than once; their values stand side by side, smallest first. For survival time, the PubChem record calls one and a half times the control and up active, and a quarter to a half above the control has no call in these data; cut-offs in other NCI protocols can differ. Marks such as (2×) count equal records among those shown. Some T/C values carry the count of animals alive at the toxicity check (mostly the fifth day); where none is given, no animal had died by that day.

With `CC[C@@]1(O)C(=O)OCc2c1cc1n(c2=O)Cc2cc3ccccc3nc2-1`, the T/C is, setting by setting: (dose: 0.39 mg/kg/injection, schedule: Q04DX003 (ip), vehicle: other) 128 % of control; (dose: 0.5 mg/kg/injection, schedule: Q04DX003 (ip), vehicle: other) 129 % of control; (dose: 0.75 mg/kg/injection, schedule: Q01DX005 (ip), vehicle: saline with Tween-80) 137 (2×) and 141 % of control; (dose: 1.0 mg/kg/injection, schedule: Q04DX003 (ip), vehicle: other, evaluated on day 35) 126 % of control; (dose: 1.0 mg/kg/injection, schedule: Q04DX003 (ip), vehicle: other, evaluated on day 40) 138 % of control; (dose: 2.0 mg/kg/injection, schedule: Q04DX003 (ip), vehicle: other) 127 % of control. For the same compound, the T/C by setting is: under setting [1], 88, 199, 213 % of control; (dose: 6.7 mg/kg/injection, schedule: Q04DX002 (ip), vehicle: saline with Tween-80, evaluated on day 45) 169, 180, 195, 203, 220 % of control; (dose: 6.7 mg/kg/injection, schedule: Q04DX002 (ip), vehicle: saline with Tween-80, evaluated on day 47) 192 and 227 % of control; under setting [2], 128 % of control; (dose: 10.0 mg/kg/injection, schedule: Q04DX002 (ip), vehicle: saline with Tween-80, evaluated on day 45) 86, 180, 187, 205, 215 % of control; (dose: 10.0 mg/kg/injection, schedule: Q04DX002 (ip), vehicle: saline with Tween-80, evaluated on day 47) 217, 241, 247 % of control. Further, the T/C runs as follows: (dose: 15.0 mg/kg/injection, schedule: Q04DX002 (ip), vehicle: saline with Tween-80, evaluated on day 45) 203, 214, 235, 424 % of control; (dose: 15.0 mg/kg/injection, schedule: Q04DX002 (ip), vehicle: saline with Tween-80, evaluated on day 47) 219, 277, 371 % of control. The survivor count is listed as 6 of 6 (dose: 2.5 mg/kg/injection, schedule: Q04DX003 (ip), vehicle: saline with Tween-80); 4 of 6 (dose: 3.75 mg/kg/injection, schedule: Q04DX003 (ip), vehicle: saline with Tween-80); 6 of 6 (dose: 5.0 mg/kg/injection, schedule: Q04DX003 (ip), vehicle: saline with Tween-80); 6 of 6 under setting [1]; 5 of 6 (dose: 6.25 mg/kg/injection, schedule: Q04DX003 (ip), vehicle: other); 6 of 6 under setting [2]. In addition, the survivor count is recorded as 6 of 6 (dose: 10.0 mg/kg/injection, schedule: Q01DX005 (ip), vehicle: saline with Tween-80); 6 of 6 (dose: 10.0 mg/kg/injection, schedule: Q04DX003 (ip), vehicle: saline with Tween-80); 10 of 10 (dose: 12.0 mg/kg/injection, schedule: Q01DX005 (ip), vehicle: saline with Tween-80); 5 of 6 (dose: 12.5 mg/kg/injection, schedule: Q04DX003 (ip), vehicle: other); 10 of 10 (dose: 15.0 mg/kg/injection, schedule: Q04DX002 (ip), vehicle: saline with Tween-80); 5 of 6 (dose: 16.67 mg/kg/injection, schedule: Q01DX005 (ip), vehicle: saline with Tween-80). Moreover, for the setting “dose: 22.5 mg/kg/injection, schedule: Q04DX002 (ip), vehicle: saline with Tween-80”, the survivor count is on record as 9 of 10.

With `CCCCN(CCCC)c1cc(C(=O)CCCCCN)c2ccccc2n1`, the survivor count (dose: 50.0 mg/kg/injection, schedule: Q01DX005 (ip), vehicle: saline) is recorded as 1 of 6 and the survivor count (dose: 100.0 mg/kg/injection, schedule: Q01DX005 (ip), vehicle: saline) is 0 of 6.

Turning to `CCC1=CC2CN3CCc4c([nH]c5ccccc45)C(C(=O)OC)(C2)C13` (stereo not given), the survivor count (dose: 200.0 mg/kg/injection, schedule: Q01DX005 (ip), vehicle: saline with Tween-80) is on record as 3 of 6.

In the case of `CC(C)c1ccc([C](C)(CC(C)(C)C)[Sn]([CH3])([CH3])[CH3])cc1` (stereo not given), the survivor count is reported as 3 of 6 (dose: 12.5 mg/kg/injection, schedule: Q04DX003 (ip), vehicle: Klucel (hydroxypropylcellulose) (HPC)); 1 of 6 (dose: 25.0 mg/kg/injection, schedule: Q04DX003 (ip), vehicle: Klucel (hydroxypropylcellulose) (HPC)); 0 of 6 (dose: 50.0 mg/kg/injection, schedule: Q04DX003 (ip), vehicle: Klucel (hydroxypropylcellulose) (HPC)).

On to `N#CC(=O)Nc1ccc(Cl)c(Cl)c1`, for which the survivor count by setting is: (dose: 60.0 mg/kg/injection, schedule: Q01DX005 (ip), vehicle: Klucel (hydroxypropylcellulose) (HPC)) 0 of 6; (dose: 120.0 mg/kg/injection, schedule: Q01DX005 (ip), vehicle: Klucel (hydroxypropylcellulose) (HPC)) 0 of 6; (dose: 240.0 mg/kg/injection, schedule: Q01DX005 (ip), vehicle: Klucel (hydroxypropylcellulose) (HPC)) 0 of 6.

As for `COc1ccc(C(Cc2ccccc2)NCCNCCO)cc1` (stereo not given), the survivor count under setting [3] is 0 of 5.

On to `O=C(NC1=NN(Cc2ccccc2)C(=O)C1)c1ccc(S(=O)(=O)F)cc1`, for which, under “dose: 240.0 mg/kg/injection, schedule: Q01DX005 (ip), vehicle: saline with Tween-80”, the survivor count was 3 of 6.

In the case of `C=C1c2cccc(O)c2C(O)=C2C(=O)[C@]3(O)C(O)=C(C(N)=O)C(=O)[C@@H](N(C)C)[C@@H]3[C@@H](O)[C@H]12`, the T/C (dose: 50.0 mg/kg/injection, schedule: Q01DX005 (ip), vehicle: Klucel (hydroxypropylcellulose) (HPC), evaluated on day 20) is 110 % of control; the T/C (dose: 50.0 mg/kg/injection, schedule: Q01DX005 (ip), vehicle: Klucel (hydroxypropylcellulose) (HPC), evaluated on day 30) is 107 and 113 % of control; the T/C (dose: 50.0 mg/kg/injection, schedule: Q01DX005 (ip), vehicle: Klucel (hydroxypropylcellulose) (HPC), evaluated on day 60) is 108 % of control; the T/C (dose: 100.0 mg/kg/injection, schedule: Q01DX005 (ip), vehicle: Klucel (hydroxypropylcellulose) (HPC), evaluated on day 20) was 111 % of control; the T/C (dose: 100.0 mg/kg/injection, schedule: Q01DX005 (ip), vehicle: Klucel (hydroxypropylcellulose) (HPC), evaluated on day 30) is listed as 105, 109, 113, 118 % of control; the T/C (dose: 100.0 mg/kg/injection, schedule: Q01DX005 (ip), vehicle: Klucel (hydroxypropylcellulose) (HPC), evaluated on day 60) was 110 % of control. Further, the T/C (dose: 200.0 mg/kg/injection, schedule: Q01DX005 (ip), vehicle: Klucel (hydroxypropylcellulose) (HPC), evaluated on day 20) is 153 % of control; the T/C (dose: 200.0 mg/kg/injection, schedule: Q01DX005 (ip), vehicle: Klucel (hydroxypropylcellulose) (HPC), evaluated on day 30) is 119 and 136 % of control; the T/C (dose: 200.0 mg/kg/injection, schedule: Q01DX005 (ip), vehicle: Klucel (hydroxypropylcellulose) (HPC), evaluated on day 60) was 133 % of control [9 of 10 alive]. For the same compound, the survivor count runs as follows: (dose: 277.77 mg/kg/injection, schedule: Q01DX005 (ip), vehicle: Klucel (hydroxypropylcellulose) (HPC)) 1 of 6; (dose: 400.0 mg/kg/injection, schedule: Q01DX005 (ip), vehicle: Klucel (hydroxypropylcellulose) (HPC)) 0 of 6 and 1 of 10.

Turning to `O=C1c2ccccc2C(=O)c2c(NC(=O)C(F)(F)F)cccc21`, the survivor count reads like this: (dose: 100.0 mg/kg/injection, schedule: Q01DX005 (ip), vehicle: Klucel (hydroxypropylcellulose) (HPC)) 6 of 6; under setting [3], 6 of 6.

Turning to `CC(C)Oc1nc(N2CCNCC2)nc2c1CCCC2`, the survivor count runs as follows: (dose: 120.0 mg/kg/injection, schedule: Q01DX005 (ip), vehicle: saline) 1 of 6; (dose: 240.0 mg/kg/injection, schedule: Q01DX005 (ip), vehicle: saline) 0 of 6.

With `O=C(CCl)NCCCl`, the survivor count under setting [4] is 3 of 6.

For the compound `CC(=O)OC1OC(COS(C)(=O)=O)C(OC(C)=O)C(OS(C)(=O)=O)C1OC(C)=O` (stereo not given), the survivor count under setting [4] was 6 of 6.
